Laboratory results taken from paper PMC9179584.
These are yes or no findings as the source states them, for the method shown. In cells and extracts the contact can be indirect. Some results given as binding are weak or reduced against the parent protein; the word gives no strength.

The chains behind the UniProt entries cited, without tags or fusion partners.
UniProt Q15796: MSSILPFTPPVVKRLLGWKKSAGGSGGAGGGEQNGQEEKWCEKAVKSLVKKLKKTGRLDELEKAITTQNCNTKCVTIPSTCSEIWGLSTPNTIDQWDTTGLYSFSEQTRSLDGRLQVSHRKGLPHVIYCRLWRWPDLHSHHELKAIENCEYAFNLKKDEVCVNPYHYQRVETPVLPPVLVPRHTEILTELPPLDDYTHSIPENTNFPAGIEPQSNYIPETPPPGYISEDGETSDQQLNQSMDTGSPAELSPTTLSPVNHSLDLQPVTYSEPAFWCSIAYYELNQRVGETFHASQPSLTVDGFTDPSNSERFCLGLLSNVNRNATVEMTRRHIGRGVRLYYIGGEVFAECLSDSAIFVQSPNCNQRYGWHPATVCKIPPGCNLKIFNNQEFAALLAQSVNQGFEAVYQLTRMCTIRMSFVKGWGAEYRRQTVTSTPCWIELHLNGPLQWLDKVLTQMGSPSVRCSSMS
UniProt P84022: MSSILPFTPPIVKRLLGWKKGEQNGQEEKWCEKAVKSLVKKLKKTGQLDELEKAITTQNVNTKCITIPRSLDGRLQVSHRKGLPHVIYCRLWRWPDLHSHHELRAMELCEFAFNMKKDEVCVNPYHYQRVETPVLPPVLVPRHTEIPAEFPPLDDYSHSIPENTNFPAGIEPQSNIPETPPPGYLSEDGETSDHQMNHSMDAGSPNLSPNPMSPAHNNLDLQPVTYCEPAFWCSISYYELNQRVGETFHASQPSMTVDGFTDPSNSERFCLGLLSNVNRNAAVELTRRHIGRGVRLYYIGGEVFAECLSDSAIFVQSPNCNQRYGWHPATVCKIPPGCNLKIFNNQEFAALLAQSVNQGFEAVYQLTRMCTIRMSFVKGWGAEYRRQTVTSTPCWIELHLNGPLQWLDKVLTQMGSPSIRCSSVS

Legend:
[1] = target: SMAD2 wild type, overexpressed from pCMV5b-SMAD2 (UniProt Q15796); experiment: co-IP; HT-1080 cells transiently transfected with SMAD2 or SMAD3 constructs; NP-40 lysate, 500 µg protein, IP of SMAD2 or SMAD3 overnight at 4 °C, protein A-agarose; SARA blotted
[2] = target: SMAD3 wild type, overexpressed from pCMV5b-SMAD3 (UniProt P84022); experiment: as above
[3] = target: SMAD2 (human (endogenous in HT-1080)) (UniProt Q15796); experiment: co-IP; endogenous proteins, HT-1080 cells under normoxic (21% O2) or hypoxic (1% O2) conditions; NP-40 lysate, IP of SMAD2 or SMAD3 overnight at 4 °C, protein A-agarose; SARA blotted
[4] = target: SMAD3 (human (endogenous in HT-1080)) (UniProt P84022); experiment: as above

Measured: binding

B1: SMAD Anchor for Receptor Activation (SARA) (protein, UniProt O95405 1-1425)
chain: MENYFQAEAYNLDKVLDEFEQNEDETVSSTLLDTKWNKILDPPSHRLSFNPTLASVNESAVSNESQPQLKVFSLAHSAPLTTEEEDHCANGQDCNLNPEIATMWIDENAVAEDQLIKRNYSWDDQCSAVEVGEKKCGNLACLPDEKNVLVVAVMHNCDKRTLQNDLQDCNNYNSQSLMDAFSCSLDNENRQTDQFSFSINESTEKDMNSEKQMDPLNRPKTEGRSVNHLCPTSSDSLASVCSPSQLKDDGSIGRDPSMSAITSLTVDSVISSQGTDGCPAVKKQENYIPDEDLTGKISSPRTDLGSPNSFSHMSEGILMKKEPAEESTTEESLRSGLPLLLKPDMPNGSGRNNDCERCSDCLVPNEVRADENEGYEHEETLGTTEFLNMTEHFSESQDMTNWKLTKLNEMNDSQVNEEKEKFLQISQPEDTNGDSGGQCVGLADAGLDLKGTCISESEECDFSTVIDTPAANYLSNGCDSYGMQDPGVSFVPKTLPSKEDSVTEEKEIEESKSECYSNIYEQRGNEATEGSGLLLNSTGDLMKKNYLHNFCSQVPSVLGQSSPKVVASLPSISVPFGGARPKQPSNLKLQIPKPLSDHLQNDFPANSGNNTKNKNDILGKAKLGENSATNVCSPSLGNISNVDTNGEHLESYEAEISTRPCLALAPDSPDNDLRAGQFGISARKPFTTLGEVAPVWVPDSQAPNCMKCEARFTFTKRRHHCRACGKVFCASCCSLKCKLLYMDRKEARVCVICHSVLMNAQAWENMMSASSQSPNPNNPAEYCSTIPPLQQAQASGALSSPPPTVMVPVGVLKHPGAEVAQPREQRRVWFADGILPNGEVADAAKLTMNGTSSAGTLAVSHDPVKPVTTSPLPAETDICLFSGSITQVGSPVGSAMNLIPEDGLPPILISTGVKGDYAVEEKPSQISVMQQLEDGGPDPLVFVLNANLLSMVKIVNYVNRKCWCFTTKGMHAVGQSEIVILLQCLPDEKCLPKDIFNHFVQLYRDALAGNVVSNLGHSFFSQSFLGSKEHGGFLYVTSTYQSLQDLVLPTPPYLFGILIQKWETPWAKVFPIRLMLRLGAEYRLYPCPLFSVRFRKPLFGETGHTIMNLLADFRNYQYTLPVVQGLVVDMEVRKTSIKIPSNRYNEMMKAMNKSNEHVLAGGACFNEKADSHLVCVQNDDGNYQTQAISIHNQPRKVTGASFFVFSGALKSSSGYLAKSSIVEDGVMVQITAENMDSLRQALREMKDFTITCGKADAEEPQEHIHIQWVDDDKNVSKGVVSPIDGKSMETITNVKIFHGSEYKANGKVIRWTEVFFLENDDQHNCLSDPADHSRLTEHVAKAFCLALCPHLKLLKEDGMTKLGLRVTLDSDQVGYQAGSNGQPLPSQYMNDLDSALVPVIHGGACQLSEGPVVMELIFYILENIV
binds: all assays above
